Experimental data published in PMC11988436.
Results are given in words; binding and its absence hold for the method and conditions named. Binding seen in cells or lysates may run through a third protein. Some binding calls cover weakened binding; strength is not graded here.

By UniProt entry, the sequences of proteins in these tests, tags left out.
UniProt Q6R891: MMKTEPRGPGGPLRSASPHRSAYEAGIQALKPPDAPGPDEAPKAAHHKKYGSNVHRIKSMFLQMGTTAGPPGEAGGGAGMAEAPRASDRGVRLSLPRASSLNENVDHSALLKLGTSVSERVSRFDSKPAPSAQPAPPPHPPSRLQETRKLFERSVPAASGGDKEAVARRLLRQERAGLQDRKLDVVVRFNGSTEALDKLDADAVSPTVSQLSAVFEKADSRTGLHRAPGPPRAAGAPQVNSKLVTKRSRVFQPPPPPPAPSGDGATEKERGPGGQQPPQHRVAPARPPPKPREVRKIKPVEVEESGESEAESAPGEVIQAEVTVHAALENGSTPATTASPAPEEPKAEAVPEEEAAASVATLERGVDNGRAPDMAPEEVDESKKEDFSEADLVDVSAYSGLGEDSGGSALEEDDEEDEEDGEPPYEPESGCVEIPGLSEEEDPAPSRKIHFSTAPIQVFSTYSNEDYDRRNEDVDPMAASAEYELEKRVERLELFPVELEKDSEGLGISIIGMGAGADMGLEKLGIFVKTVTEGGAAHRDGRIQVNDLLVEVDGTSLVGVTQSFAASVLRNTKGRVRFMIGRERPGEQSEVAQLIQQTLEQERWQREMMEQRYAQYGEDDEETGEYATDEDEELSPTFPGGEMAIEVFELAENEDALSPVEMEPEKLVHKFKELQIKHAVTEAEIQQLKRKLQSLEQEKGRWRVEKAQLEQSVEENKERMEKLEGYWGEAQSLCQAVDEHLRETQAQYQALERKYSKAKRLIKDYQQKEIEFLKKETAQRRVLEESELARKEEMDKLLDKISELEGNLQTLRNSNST

T1: E3 ubiquitin ligase PRAJA1 (mouse (endogenous in hippocampal CA1 tissue)) (UniProt O55176)
T1 sequence: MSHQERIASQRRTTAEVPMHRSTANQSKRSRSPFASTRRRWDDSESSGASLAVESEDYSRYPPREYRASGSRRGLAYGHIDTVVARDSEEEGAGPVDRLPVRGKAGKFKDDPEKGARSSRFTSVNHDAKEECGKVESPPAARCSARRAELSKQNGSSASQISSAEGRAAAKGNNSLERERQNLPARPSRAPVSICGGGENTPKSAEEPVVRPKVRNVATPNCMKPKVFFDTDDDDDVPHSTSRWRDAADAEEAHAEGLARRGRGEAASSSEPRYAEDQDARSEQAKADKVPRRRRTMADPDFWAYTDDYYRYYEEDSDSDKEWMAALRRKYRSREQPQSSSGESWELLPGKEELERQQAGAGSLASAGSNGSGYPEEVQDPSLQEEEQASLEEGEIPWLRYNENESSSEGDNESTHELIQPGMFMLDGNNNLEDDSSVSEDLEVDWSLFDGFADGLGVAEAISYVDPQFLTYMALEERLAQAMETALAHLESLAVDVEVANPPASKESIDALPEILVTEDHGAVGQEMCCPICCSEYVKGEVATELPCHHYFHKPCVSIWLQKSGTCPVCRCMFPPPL


Tests used:
[1] = biological target: T1, E3 ubiquitin ligase PRAJA1 (mouse (endogenous in hippocampal CA1 tissue)); experiment: co-IP; mouse hippocampal CA1 tissue lysed in RIPA buffer with protease inhibitors, precleared with control agarose resin; antibody (PRAJA1, IgG control; by the legend also spinophilin) immobilised on resin, incubated with lysate overnight; Western blot
[2] = biological target: spinophilin (neurabin 2) (mouse (endogenous in hippocampal CA1 tissue)) (UniProt Q6R891); experiment: as above

Row | binding [1] | binding [2] | Molecule
1 | binds |  | spinophilin (neurabin 2) (from UniProt Q6R891 1-817)
2 |  | binds | E3 ubiquitin ligase PRAJA1 (protein, UniProt O55176 1-578) MSHQERIASQRRTTAEVPMHRSTANQSKRSRSPFASTRRRWDDSESSGASLAVESEDYSRYPPREYRASGSRRGLAYGHIDTVVARDSEEEGAGPVDRLPVRGKAGKFKDDPEKGARSSRFTSVNHDAKEECGKVESPPAARCSARRAELSKQNGSSASQISSAEGRAAAKGNNSLERERQNLPARPSRAPVSICGGGENTPKSAEEPVVRPKVRNVATPNCMKPKVFFDTDDDDDVPHSTSRWRDAADAEEAHAEGLARRGRGEAASSSEPRYAEDQDARSEQAKADKVPRRRRTMADPDFWAYTDDYYRYYEEDSDSDKEWMAALRRKYRSREQPQSSSGESWELLPGKEELERQQAGAGSLASAGSNGSGYPEEVQDPSLQEEEQASLEEGEIPWLRYNENESSSEGDNESTHELIQPGMFMLDGNNNLEDDSSVSEDLEVDWSLFDGFADGLGVAEAISYVDPQFLTYMALEERLAQAMETALAHLESLAVDVEVANPPASKESIDALPEILVTEDHGAVGQEMCCPICCSEYVKGEVATELPCHHYFHKPCVSIWLQKSGTCPVCRCMFPPPL
